Test [1] addresses T1, myc‐Plk4 (wild type; siRNA-resistant version myc‐tagged Plk4‐WT*) (UniProt O00444).
T1 sequence: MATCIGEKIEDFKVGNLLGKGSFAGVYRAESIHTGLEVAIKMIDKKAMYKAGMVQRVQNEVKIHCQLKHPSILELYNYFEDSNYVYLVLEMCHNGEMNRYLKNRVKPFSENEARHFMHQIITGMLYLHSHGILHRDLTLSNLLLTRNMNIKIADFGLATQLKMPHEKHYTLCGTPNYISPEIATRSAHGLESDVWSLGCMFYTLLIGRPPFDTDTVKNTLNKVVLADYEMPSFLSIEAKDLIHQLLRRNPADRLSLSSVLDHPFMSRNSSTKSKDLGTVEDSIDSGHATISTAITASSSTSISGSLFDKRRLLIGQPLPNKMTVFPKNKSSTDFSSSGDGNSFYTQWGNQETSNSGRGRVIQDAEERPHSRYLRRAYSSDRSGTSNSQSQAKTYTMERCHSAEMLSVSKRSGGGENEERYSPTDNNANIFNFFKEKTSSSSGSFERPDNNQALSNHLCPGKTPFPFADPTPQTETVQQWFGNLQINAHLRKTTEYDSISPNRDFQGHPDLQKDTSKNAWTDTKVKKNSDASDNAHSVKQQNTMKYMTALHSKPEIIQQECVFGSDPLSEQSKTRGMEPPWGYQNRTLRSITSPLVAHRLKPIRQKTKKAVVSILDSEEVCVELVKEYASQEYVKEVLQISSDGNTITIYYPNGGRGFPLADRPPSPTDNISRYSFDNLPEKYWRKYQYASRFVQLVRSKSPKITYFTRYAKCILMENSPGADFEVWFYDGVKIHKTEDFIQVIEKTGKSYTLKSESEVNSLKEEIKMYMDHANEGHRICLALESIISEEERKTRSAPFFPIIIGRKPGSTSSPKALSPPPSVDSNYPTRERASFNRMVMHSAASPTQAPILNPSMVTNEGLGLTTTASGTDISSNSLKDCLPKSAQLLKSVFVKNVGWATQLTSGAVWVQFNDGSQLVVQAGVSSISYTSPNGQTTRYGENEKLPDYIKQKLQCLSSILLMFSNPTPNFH
Nature of the test: co-IP; U2OS cells transfected with myc-Plk4 (for Fig EV2A siRNA-resistant myc-Plk4-WT* after Plk4 siRNA); IP with anti-myc antibody; immunoblot of endogenous proteins. (A western blot detects proteins with antibodies after separation by electrophoresis.)

By UniProt entry, the sequences of proteins in these tests, tags left out. Where a name states a change or a piece, a line headed by the entry shows the natural chain unless it says otherwise.
UniProt Q15154: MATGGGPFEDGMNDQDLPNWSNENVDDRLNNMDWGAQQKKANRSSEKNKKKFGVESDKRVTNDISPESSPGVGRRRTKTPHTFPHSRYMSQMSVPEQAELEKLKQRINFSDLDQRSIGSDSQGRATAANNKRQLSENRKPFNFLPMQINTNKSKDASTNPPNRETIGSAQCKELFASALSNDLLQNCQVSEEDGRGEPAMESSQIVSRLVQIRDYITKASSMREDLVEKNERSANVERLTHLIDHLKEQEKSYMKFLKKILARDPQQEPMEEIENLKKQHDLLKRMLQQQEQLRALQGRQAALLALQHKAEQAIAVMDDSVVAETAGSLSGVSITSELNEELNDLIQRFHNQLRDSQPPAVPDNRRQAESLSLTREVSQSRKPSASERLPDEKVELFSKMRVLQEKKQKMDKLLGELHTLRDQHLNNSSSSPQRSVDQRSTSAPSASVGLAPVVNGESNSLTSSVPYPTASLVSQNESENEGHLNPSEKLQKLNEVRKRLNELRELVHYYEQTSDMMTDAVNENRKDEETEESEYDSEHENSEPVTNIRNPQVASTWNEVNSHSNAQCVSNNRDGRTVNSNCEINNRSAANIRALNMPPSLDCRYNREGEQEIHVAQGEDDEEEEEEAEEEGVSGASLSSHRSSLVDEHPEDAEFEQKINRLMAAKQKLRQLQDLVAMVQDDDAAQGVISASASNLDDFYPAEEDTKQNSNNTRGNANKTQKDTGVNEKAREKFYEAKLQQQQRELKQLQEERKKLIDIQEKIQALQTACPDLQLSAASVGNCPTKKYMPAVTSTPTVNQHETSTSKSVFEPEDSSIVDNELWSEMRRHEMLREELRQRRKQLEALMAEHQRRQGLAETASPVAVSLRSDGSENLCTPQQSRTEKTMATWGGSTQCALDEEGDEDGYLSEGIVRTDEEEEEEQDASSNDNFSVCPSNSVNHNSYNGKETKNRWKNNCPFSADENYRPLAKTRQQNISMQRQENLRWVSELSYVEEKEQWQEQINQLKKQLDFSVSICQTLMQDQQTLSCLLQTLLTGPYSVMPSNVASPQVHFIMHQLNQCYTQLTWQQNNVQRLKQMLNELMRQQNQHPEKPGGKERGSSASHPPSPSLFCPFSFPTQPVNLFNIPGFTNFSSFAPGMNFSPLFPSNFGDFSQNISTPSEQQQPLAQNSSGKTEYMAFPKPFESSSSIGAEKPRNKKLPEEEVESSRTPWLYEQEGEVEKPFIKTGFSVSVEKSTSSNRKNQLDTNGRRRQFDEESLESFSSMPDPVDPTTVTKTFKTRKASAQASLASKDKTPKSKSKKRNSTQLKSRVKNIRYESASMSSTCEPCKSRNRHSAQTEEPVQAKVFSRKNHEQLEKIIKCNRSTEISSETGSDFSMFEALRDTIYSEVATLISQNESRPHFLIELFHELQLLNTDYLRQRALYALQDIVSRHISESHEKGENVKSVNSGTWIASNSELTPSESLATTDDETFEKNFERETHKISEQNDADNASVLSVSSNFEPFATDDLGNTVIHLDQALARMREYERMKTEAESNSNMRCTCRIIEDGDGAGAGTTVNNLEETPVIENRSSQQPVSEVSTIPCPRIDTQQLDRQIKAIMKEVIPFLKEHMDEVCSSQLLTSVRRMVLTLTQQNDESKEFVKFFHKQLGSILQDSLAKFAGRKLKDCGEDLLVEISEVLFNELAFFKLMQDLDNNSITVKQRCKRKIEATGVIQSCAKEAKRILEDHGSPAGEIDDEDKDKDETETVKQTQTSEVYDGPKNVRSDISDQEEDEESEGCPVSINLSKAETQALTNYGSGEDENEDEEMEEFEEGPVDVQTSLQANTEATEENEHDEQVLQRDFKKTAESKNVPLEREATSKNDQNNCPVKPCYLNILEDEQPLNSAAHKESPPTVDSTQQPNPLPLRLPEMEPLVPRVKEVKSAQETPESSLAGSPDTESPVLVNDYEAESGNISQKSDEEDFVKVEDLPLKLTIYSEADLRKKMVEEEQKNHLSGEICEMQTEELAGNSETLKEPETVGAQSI
UniProt O15078: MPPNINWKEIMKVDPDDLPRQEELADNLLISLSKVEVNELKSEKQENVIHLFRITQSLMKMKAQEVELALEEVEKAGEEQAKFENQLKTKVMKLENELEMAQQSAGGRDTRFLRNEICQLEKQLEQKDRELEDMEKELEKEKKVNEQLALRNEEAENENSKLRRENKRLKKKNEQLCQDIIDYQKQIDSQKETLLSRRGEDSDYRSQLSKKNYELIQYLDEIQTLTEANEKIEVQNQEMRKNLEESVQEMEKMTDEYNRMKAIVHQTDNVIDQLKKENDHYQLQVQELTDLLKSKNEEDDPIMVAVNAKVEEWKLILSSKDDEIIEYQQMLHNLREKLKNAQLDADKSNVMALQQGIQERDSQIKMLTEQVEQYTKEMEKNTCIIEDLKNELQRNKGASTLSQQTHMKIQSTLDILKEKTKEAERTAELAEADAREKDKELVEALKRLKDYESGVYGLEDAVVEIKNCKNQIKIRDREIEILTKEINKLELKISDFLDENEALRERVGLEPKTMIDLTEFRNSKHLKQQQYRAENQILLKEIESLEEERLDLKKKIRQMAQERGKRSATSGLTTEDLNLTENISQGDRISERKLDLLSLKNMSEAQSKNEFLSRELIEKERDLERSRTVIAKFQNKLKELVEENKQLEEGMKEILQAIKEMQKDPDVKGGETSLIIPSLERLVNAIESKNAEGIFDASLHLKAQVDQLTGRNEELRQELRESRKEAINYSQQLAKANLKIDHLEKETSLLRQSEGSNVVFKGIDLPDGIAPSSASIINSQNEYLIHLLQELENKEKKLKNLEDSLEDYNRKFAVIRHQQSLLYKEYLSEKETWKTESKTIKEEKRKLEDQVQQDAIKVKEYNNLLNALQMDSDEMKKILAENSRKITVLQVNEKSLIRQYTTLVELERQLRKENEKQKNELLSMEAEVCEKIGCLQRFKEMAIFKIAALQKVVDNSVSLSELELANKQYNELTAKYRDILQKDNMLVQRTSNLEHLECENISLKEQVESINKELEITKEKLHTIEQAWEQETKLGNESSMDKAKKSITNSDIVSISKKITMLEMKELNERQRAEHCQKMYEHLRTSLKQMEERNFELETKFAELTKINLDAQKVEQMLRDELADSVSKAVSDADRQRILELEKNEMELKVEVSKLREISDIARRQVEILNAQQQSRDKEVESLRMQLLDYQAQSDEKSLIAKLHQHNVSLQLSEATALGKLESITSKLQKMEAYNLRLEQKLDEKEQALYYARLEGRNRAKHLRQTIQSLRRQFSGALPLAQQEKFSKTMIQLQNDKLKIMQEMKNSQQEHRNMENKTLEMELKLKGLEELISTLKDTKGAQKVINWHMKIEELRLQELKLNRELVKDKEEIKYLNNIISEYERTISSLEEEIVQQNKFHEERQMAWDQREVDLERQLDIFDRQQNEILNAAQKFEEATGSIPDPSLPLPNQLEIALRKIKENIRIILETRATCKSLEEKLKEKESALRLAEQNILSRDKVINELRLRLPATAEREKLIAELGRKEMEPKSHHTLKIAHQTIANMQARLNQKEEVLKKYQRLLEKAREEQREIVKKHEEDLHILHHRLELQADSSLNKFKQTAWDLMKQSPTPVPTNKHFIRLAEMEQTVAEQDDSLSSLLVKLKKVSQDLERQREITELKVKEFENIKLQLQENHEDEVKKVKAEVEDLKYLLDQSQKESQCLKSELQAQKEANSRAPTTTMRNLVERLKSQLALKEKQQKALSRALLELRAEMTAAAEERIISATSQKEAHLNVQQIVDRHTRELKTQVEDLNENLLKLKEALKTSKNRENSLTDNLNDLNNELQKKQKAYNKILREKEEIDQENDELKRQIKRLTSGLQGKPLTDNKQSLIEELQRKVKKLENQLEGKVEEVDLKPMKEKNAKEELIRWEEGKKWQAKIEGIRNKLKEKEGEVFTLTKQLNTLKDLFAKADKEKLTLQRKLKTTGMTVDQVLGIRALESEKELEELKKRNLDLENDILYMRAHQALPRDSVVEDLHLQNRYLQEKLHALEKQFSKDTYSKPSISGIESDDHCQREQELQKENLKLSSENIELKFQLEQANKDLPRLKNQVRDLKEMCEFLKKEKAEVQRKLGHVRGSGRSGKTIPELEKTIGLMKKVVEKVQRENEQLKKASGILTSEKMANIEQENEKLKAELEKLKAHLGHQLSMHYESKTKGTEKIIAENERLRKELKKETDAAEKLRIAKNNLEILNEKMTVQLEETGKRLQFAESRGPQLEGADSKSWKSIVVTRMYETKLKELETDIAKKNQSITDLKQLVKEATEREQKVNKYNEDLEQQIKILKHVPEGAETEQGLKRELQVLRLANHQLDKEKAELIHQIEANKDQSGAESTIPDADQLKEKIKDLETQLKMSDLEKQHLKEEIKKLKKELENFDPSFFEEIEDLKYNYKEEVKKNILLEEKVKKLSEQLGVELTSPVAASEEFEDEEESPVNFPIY

Test [2] has as its target EGFP‐PCM1 (wild type; siRNA-resistant version EGFP‐PCM1‐WT*) (human) (UniProt Q15154). The experiment in a line: co-IP; U2OS cells transfected with EGFP-PCM1 constructs (for Fig 3F after PCM1 siRNA); 1 mg lysate with GFP-Trap / anti-GFP overnight at 4°C in lysis buffer (25 mM Tris-HCl pH 7.0, 300 mM NaCl, 1% NP-40); immunoblot of endogenous partners.
The target of test [3] is EGFP‐PCM1‐S372A* (human) (UniProt Q15154). The description is as above.
The target is the same in test [4]. The experiment in a line: co-IP; PCM1 siRNA-treated U2OS cells co-transfected with EGFP- and mCherry-tagged PCM1 (WT*, S372A*) in combinations; IP with anti-RFP (RFP-Trap) of mCherry-PCM1, immunoblot.
Test [5] concerns the target EGFP‐PCM1 (wild type; siRNA-resistant version EGFP‐PCM1‐WT*) (human) (UniProt Q15154). Nature of the test: co-IP; U2OS cells transfected with EGFP-PCM1 constructs (for Fig 3F after PCM1 siRNA); 1 mg lysate with GFP-Trap / anti-GFP overnight at 4°C in lysis buffer (25 mM Tris-HCl pH 7.0, 300 mM NaCl, 1% NP-40); immunoblot of endogenous partners. The source holds these as a separate data set.

For test [6], the target named is EGFP‐PCM1‐S372A* (human) (UniProt Q15154). The description is as above. The source holds these as a separate data set.

Like-named read-outs stand apart in the source and are kept apart here. No constants are given. Whether binding was seen depends on the method and setting. Binding seen in cells or lysates may run through a third protein. Some results given as binding are weak or reduced against the parent protein; the word gives no strength. For part of these data: Sequences can lack the tags named with a protein.

With “endogenous PCM1 (from UniProt Q15154 1-2024)”, the binding entry in test [1] is reported as “binds”.

Take Cep290 (from UniProt O15078 1-2479): the binding entry (in test [2]; in the test with EGFP‐PCM1‐S372A* (human) [3]) was “binds” in each case.

Take “EGFP‐PCM1‐S372A* (from UniProt Q15154 1-2024)”: the binding result with EGFP‐PCM1‐S372A* (human) [4] is on record as “binds”.

In the case of “EGFP‐PCM1 (wild type; siRNA-resistant version EGFP‐PCM1‐WT*) (from UniProt Q15154 1-2024)”, in the test with EGFP‐PCM1‐S372A* (human) [4], the binding result is reported as “binds”.

B1: MBP‐Plk4‐WT (enzyme, UniProt O00444 1-970, looked up)
chain: MATCIGEKIEDFKVGNLLGKGSFAGVYRAESIHTGLEVAIKMIDKKAMYKAGMVQRVQNEVKIHCQLKHPSILELYNYFEDSNYVYLVLEMCHNGEMNRYLKNRVKPFSENEARHFMHQIITGMLYLHSHGILHRDLTLSNLLLTRNMNIKIADFGLATQLKMPHEKHYTLCGTPNYISPEIATRSAHGLESDVWSLGCMFYTLLIGRPPFDTDTVKNTLNKVVLADYEMPSFLSIEAKDLIHQLLRRNPADRLSLSSVLDHPFMSRNSSTKSKDLGTVEDSIDSGHATISTAITASSSTSISGSLFDKRRLLIGQPLPNKMTVFPKNKSSTDFSSSGDGNSFYTQWGNQETSNSGRGRVIQDAEERPHSRYLRRAYSSDRSGTSNSQSQAKTYTMERCHSAEMLSVSKRSGGGENEERYSPTDNNANIFNFFKEKTSSSSGSFERPDNNQALSNHLCPGKTPFPFADPTPQTETVQQWFGNLQINAHLRKTTEYDSISPNRDFQGHPDLQKDTSKNAWTDTKVKKNSDASDNAHSVKQQNTMKYMTALHSKPEIIQQECVFGSDPLSEQSKTRGMEPPWGYQNRTLRSITSPLVAHRLKPIRQKTKKAVVSILDSEEVCVELVKEYASQEYVKEVLQISSDGNTITIYYPNGGRGFPLADRPPSPTDNISRYSFDNLPEKYWRKYQYASRFVQLVRSKSPKITYFTRYAKCILMENSPGADFEVWFYDGVKIHKTEDFIQVIEKTGKSYTLKSESEVNSLKEEIKMYMDHANEGHRICLALESIISEEERKTRSAPFFPIIIGRKPGSTSSPKALSPPPSVDSNYPTRERASFNRMVMHSAASPTQAPILNPSMVTNEGLGLTTTASGTDISSNSLKDCLPKSAQLLKSVFVKNVGWATQLTSGAVWVQFNDGSQLVVQAGVSSISYTSPNGQTTRYGENEKLPDYIKQKLQCLSSILLMFSNPTPNFH
Take B1: the binding entry in test [5] is given as “binds”.

B2: BBS4 (protein, UniProt Q96RK4 1-519)
chain: MAEERVATRTQFPVSTESQKPRQKKAPEFPILEKQNWLIHLHYIRKDYEACKAVIKEQLQETQGLCEYAIYVQALIFRLEGNIQESLELFQTCAVLSPQSADNLKQVARSLFLLGKHKAAIEVYNEAAKLNQKDWEISHNLGVCYIYLKQFNKAQDQLHNALNLNRHDLTYIMLGKIHLLEGDLDKAIEVYKKAVEFSPENTELLTTLGLLYLQLGIYQKAFEHLGNALTYDPTNYKAILAAGSMMQTHGDFDVALTKYRVVACAVPESPPLWNNIGMCFFGKKKYVAAISCLKRANYLAPFDWKILYNLGLVHLTMQQYASAFHFLSAAINFQPKMGELYMLLAVALTNLEDIENAKRAYAEAVHLDKCNPLVNLNYAVLLYNQGEKKNALAQYQEMEKKVSLLKDNSSLEFDSEMVEMAQKLGAALQVGEALVWTKPVKDPKSKHQTTSTSKPASFQQPLGSNQALGQAMSSAAAYRTLPSGAGGTSQFTKPPSLPLEPEPAVESSPTETSEQIREK
Turning to B2, the binding result was “no binding” in test [1], “binds” in test [5] and “binds” with EGFP‐PCM1‐S372A* (human) [6].

B3: hMsd1/SSX2IP (protein, UniProt Q9Y2D8 1-614)
chain: MGDWMTVTDPGLSSESKTISQYTSETKMSPSSLYSQQVLCSSIPLSKNVHSFFSAFCTEDNIEQSISYLDQELTTFGFPSLYEESKGKETKRELNIVAVLNCMNELLVLQRKNLLAQENVETQNLKLGSDMDHLQSCYSKLKEQLETSRREMIGLQERDRQLQCKNRNLHQLLKNEKDEVQKLQNIIASRATQYNHDMKRKEREYNKLKERLHQLVMNKKDKKIAMDILNYVGRADGKRGSWRTGKTEARNEDEMYKILLNDYEYRQKQILMENAELKKVLQQMKKEMISLLSPQKKKPRERVDDSTGTVISDVEEDAGELSRESMWDLSCETVREQLTNSIRKQWRILKSHVEKLDNQVSKVHLEGFNDEDVISRQDHEQETEKLELEIQQCKEMIKTQQQLLQQQLATAYDDDTTSLLRDCYLLEEKERLKEEWSLFKEQKKNFERERRSFTEAAIRLGLERKAFEEERASWLKQQFLNMTTFDHQNSENVKLFSAFSGSSDWDNLIVHSRQPQKKPHSVSNGSPVCMSKLTKSLPASPSTSDFCQTRSCISEHSSINVLNITAEEIKPNQVGGECTNQKWSVASRPGSQEGCYSGCSLSYTNSHVEKDDLP
Turning to B3, the binding result is “no binding” in test [1], “binds” in test [5] and “binds” with EGFP‐PCM1‐S372A* (human) [6].

The values above are taken from paper PMC4772974 (EMBO Reports, 2016).
